Screening data, single-dose tests

Mtb cholesterol medium: 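Growth of Mycobacterium tuberculosis over 4 days (cholesterol / DPPC medium with tyloxapol); the read-out is not stated. Tested at 50 µM. Direction is inferred from retests: higher values go with more growth inhibition. About 69,000 compounds were tested under these conditions; 0.54% (about 370) showed 50% or more at least once.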
Mtb glucose medium: 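Growth of Mycobacterium tuberculosis over 3 days (7H9 medium with glucose and tyloxapol); the read-out is not stated. Compounds at 50 µM. Direction is inferred from retests: higher values go with more growth inhibition. Of about 69,000 compounds tested this way, about 760 (1.1%) reached 50% or more in at least one test.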

Values are the deposited “Percent Effect”, in %. The controls that fix the scale are not given in the record; negative values are as filed. Compounds were drawn at random from those tested, without regard to their results. Two or more numbers in one place are separate tests of the same structure; such repeats can differ widely.

| # | structure | Mtb cholesterol medium | Mtb glucose medium |
|---|---|---|---|
| 1 | `Cc1ccccc1CCCN(C)S(C)(=O)=O` | -2.454 | -4.931 |
| 2 | `CCCNc1ccc(C(=O)NCCc2cccc(OC)c2)cn1` | 3.321 | 16.49 |
| 3 | `CC(C)C(=O)NCCCNC(=O)Nc1cc(-c2ccccc2)ns1` | -14.49 | -6.479 |
| 4 | `CCCc1cc(CNC(=O)Cc2cc(C)no2)on1` | -9.733 | 15.52 |
| 5 | `CC(C)c1noc(Cn2ncc3ccccc3c2=O)n1` | 3.19 | -1.691 |
| 6 | `COc1cc(C)ccc1OCc1nc(C(=O)N2CCCO2)co1` | 7.195 | 23.22 |
| 7 | `CCCC(=O)N1CCc2nc3cc(OC)c(OC)cc3c(=O)n2CC1` | -9.251 | -15.54 |
| 8 | `COc1ccc(CC2(CO)CCN(c3cc(N)ncn3)CC2)cc1` | 14.26 | 19.4 |
| 9 | `O=C(O)C(F)(F)F.[H][C@@]12CN(CC3CCCC3)CCO[C@]1([H])CN(C(=O)C1CC(F)(F)C1)C2` | -6.188 | -7.243 |
| 10 | `Cc1ccc(CN2CCOC3(CCN(C(=O)C4CC=CC4)CC3)C2)cc1.O=C(O)C(F)(F)F` | 34.88 | 37.78 & 31.13 |
| 11 | `Cn1c(C(=O)N2CCC(CC(N)=O)CC2)c(Cl)c2ccccc21` | -26.18 | -24.5 |
| 12 | `CN(Cc1ccncn1)C(=O)c1cccc(CCC(C)(C)O)c1` | -3.456 & -3.871 | 4.412 |
| 13 | `Cc1ccc(NC2CCN(C(=O)Cc3c(C)nn(C)c3C)CC2)nn1` | -5.708 | -7.03 |
| 14 | `COc1ccc2c(c1)NC(C1CCN(C(=O)C(C)C)CC1)NS2(=O)=O` (stereo not given) | -15.76 | 9.225 |
| 15 | `COc1ccccc1C(=O)NCCCN1CCCC1C(=O)N(C)C` (stereo not given) | 41.42 | 9.892 |
| 16 | `Cn1c2c(ccc1=O)CCN(Cc1ccoc1)CC2.O=C(O)C(F)(F)F` | 4.897 | -6.819 |
| 17 | `[H][C@@]12C[C@H](c3ccnc(C)n3)O[C@@]1([H])CCN(c1cc(OC)ncn1)C2` | 2.697 | 10.89 & 6.452 |
| 18 | `O=C(O)C(F)(F)F.[H][C@@]12CCN(Cc3ccc4c(c3)OCO4)C[C@]1(C(=O)NC)CCO2` | -5.794 | -11.6 |
| 19 | `O=C(NCCCOCC1CC1)Nc1cccnc1N1CCOCC1` | -20.71 & -0.4981 | 7.323 |
| 20 | `CC(C)(C)OC(=O)N1CCCc2ccc(NCc3ncc[nH]3)cc21` | -33.11 | -72.58 |
| 21 | `[H][C@@]12CN(c3nnc(C)s3)C[C@H](C(=O)NCc3ccco3)[C@]1([H])CCO2` | -6.152 & -29.31 | 5.854 & 19.89 |
| 22 | `CSCCC(NC(N)=O)C(=O)NCc1c(C)nn(-c2ccccc2)c1C` (stereo not given) | 2.322 | 5.364 & 0.2366 |
| 23 | `CC(C)N1C(=O)CC(N2CCN(c3ccc(F)cc3)CC2)C1=O` (stereo not given) | -26.76 | -30.31 |
| 24 | `NC(=O)CN1CCCC(Cc2ccc(N3CCOCC3)nn2)C1` (stereo not given) | -9.7 | 1.063 |
| 25 | `O[C@@H]1CN(c2noc(C3CC3)n2)CC[C@H]1c1ccc2ccccc2c1` | -19.95 | 12.6 |
| 26 | `O=C(NCCNc1ncccn1)c1ccc(OCc2ccccc2)nc1` | -13.73 | -9.701 & -4.406 |
| 27 | `Oc1ccc(N(CCc2ccccc2)CCn2cncn2)cc1` | -4.76 | -3.348 |
| 28 | `CCSc1nnc(N2CCN(c3ccccc3)CC2)s1` | 0.9512 | -19.95 |
| 29 | `O=C(CCN1C(=O)CC2(CCCC2)C1=O)NCCc1nccs1` | 7.794 | 27.17 |
| 30 | `O=C(c1ccc(F)c(F)c1)N1CCCSCC1CN1CCCC1` (stereo not given) | 1.79 | 7.467 |
| 31 | `O=S(=O)(CCN1CCOC(Cn2cccn2)C1)C(F)(F)F` (stereo not given) | -6.753 | 83.87 |
| 32 | `CCn1ncc(NC(=O)CCn2ncc3c(Cl)cccc32)c1C` | -7.57 | -6.126 |
| 33 | `CCn1c(Cn2ccnc2)nnc1C1CCN(Cc2ccc(C)o2)CC1` | -22.85 | -15.79 & -2.814 |
| 34 | `CC(=O)N1N=C(Cc2ccccc2)OC1C(=O)NCC(=O)OC(C)(C)C` (stereo not given) | -6.381 | 8.932 |
| 35 | `CC(=O)NCc1nnn2c1CN(c1ncccn1)CCC2` | -1.568 | -7.931 |
| 36 | `Cc1nc(-c2cc(Cl)c3c(c2)CC(CN)O3)c[nH]1` (stereo not given) | 20.98 | 44.96 & 41.77 |
| 37 | `OC(CNc1ccncn1)CN1CCCCCC1` (stereo not given) | 19.09 | 9.154 |
| 38 | `Cc1cc(C)nc(Nc2nccnc2C2CCCN(C(C)C)C2)n1` (stereo not given) | -2.349 & -6.98 | 19.89 |
| 39 | `Cc1nc(CN2CCC(CNC(=O)CCC3CCCC3)CC2)oc1C` | 0.0698 | -13.16 & 14.89 |
| 40 | `CN1CC(=O)N(C2CCNC2)Cc2c(NC3CCCC3)ncnc21` (stereo not given) | -2.474 | 2.778 |
| 41 | `CC(C)(C)c1noc(CN2CCCN(Cc3cccs3)CC2)n1` | -10.52 | -2.204 |
| 42 | `Cc1cc(NCc2cccc(C#N)c2)ccc1C(N)=O` | 4.005 | 4.616 & 7.548 |
| 43 | `Cc1ccc(-c2ccc(=O)n(CC(=O)Nc3nccs3)n2)cc1` | -15.92 | -7.633 |
| 44 | `CC1(C)COCCN1C(=O)CCc1nc(-c2ccccn2)no1` | -14.05 | -16.46 & -10.67 |
| 45 | `CC(C)n1[nH]c(=O)c2c1NC(=O)CSC2c1cccc(OCC(N)=O)c1` (stereo not given) | 3.355 | 16.17 |
| 46 | `O=C(NCc1cnn2cccnc12)c1cccc(CC2CCNCC2)c1` | 53.27 | 79.2 & 69.56 |
| 47 | `CN1N=C(C(=O)N2CCCC(n3ccnc3)C2)CCC1=O` (stereo not given) | -26.11 | -38.69 |
| 48 | `O=c1cc(Cn2cncn2)nc2n1CCCN(Cc1ccco1)C2` | -5.261 | -32.26 & -7.421 |
| 49 | `CCc1ccccc1OCCN1C[C@@H](NS(C)(=O)=O)[C@H](C(C)C)C1` | -1.422 | 14.56 |
| 50 | `CN1CCOC(CNC(=O)Cc2ccccc2F)C1` (stereo not given) | 19.63 | -6.099 |
| 51 | `O=C1CCCN1CCCN1CCCC1Cn1cccn1` (stereo not given) | 5.925 | -1.1 & 11.89 |
| 52 | `Cc1nn(CCO)c(C)c1CNC1CCOc2ccccc21.Cl` (stereo not given) | -3.855 | -4.044 |
| 53 | `CCc1cnc(CCNC(C)CC(=O)Nc2cccc(C)c2C)s1` (stereo not given) | 10.28 | 15.35 |
| 54 | `CCO[C@H]1CO[C@@]2(CCCN(S(=O)(=O)c3ccccc3)C2)C1` | -10.18 | -4.443 |
| 55 | `CC(=O)N1CCCN(C(=O)NC(C)Cn2ccnc2)CC1` (stereo not given) | -8.2 | 10.96 |
| 56 | `CCOCC(=O)NCC(Cc1cccc(F)c1)n1cccc1` (stereo not given) | 21.49 | 21.76 & 33.64 |
| 57 | `Cc1nn(C)c(C)c1C1CCCN1CC(=O)Nc1nccs1` (stereo not given) | -10.09 | 5.246 |
| 58 | `Cc1ccccc1C(=O)NCC(O)c1ccc(F)c(F)c1` (stereo not given) | -31.68 | -27.19 |
| 59 | `CC(C)(C)c1nnc(CN2CCCC2c2noc(C3CC3)n2)o1` (stereo not given) | -3.191 | 7.068 |

Some entries from above, unchanged:

structure,Mtb cholesterol medium,Mtb glucose medium
CC(=O)N1CCCN(C(=O)NC(C)Cn2ccnc2)CC1 (stereo not given),-8.2,10.96
O=C(NCCNc1ncccn1)c1ccc(OCc2ccccc2)nc1,-13.73,-9.701 & -4.406
Cc1nn(CCO)c(C)c1CNC1CCOc2ccccc21.Cl (stereo not given),-3.855,-4.044
CN1N=C(C(=O)N2CCCC(n3ccnc3)C2)CCC1=O (stereo not given),-26.11,-38.69
CCn1ncc(NC(=O)CCn2ncc3c(Cl)cccc32)c1C,-7.57,-6.126
Cc1ccc(NC2CCN(C(=O)Cc3c(C)nn(C)c3C)CC2)nn1,-5.708,-7.03
O=C(NCCCOCC1CC1)Nc1cccnc1N1CCOCC1,-20.71 & -0.4981,7.323
[H][C@@]12CN(c3nnc(C)s3)C[C@H](C(=O)NCc3ccco3)[C@]1([H])CCO2,-6.152 & -29.31,5.854 & 19.89

The values are deposited in ChEMBL (CHEMBL3988442, “University of Dundee, Small-Polar-MMV Screening Library” (2021)).